# Laboratory results taken from PubChem BioAssay AID2549 (National Center for Advancing Translational Sciences (NCATS), 2010).
# The chains behind the UniProt entries cited, without tags or fusion partners. Where a name states a change or a piece, a line headed by the entry shows the natural chain unless it says otherwise.
# UniProt P46063: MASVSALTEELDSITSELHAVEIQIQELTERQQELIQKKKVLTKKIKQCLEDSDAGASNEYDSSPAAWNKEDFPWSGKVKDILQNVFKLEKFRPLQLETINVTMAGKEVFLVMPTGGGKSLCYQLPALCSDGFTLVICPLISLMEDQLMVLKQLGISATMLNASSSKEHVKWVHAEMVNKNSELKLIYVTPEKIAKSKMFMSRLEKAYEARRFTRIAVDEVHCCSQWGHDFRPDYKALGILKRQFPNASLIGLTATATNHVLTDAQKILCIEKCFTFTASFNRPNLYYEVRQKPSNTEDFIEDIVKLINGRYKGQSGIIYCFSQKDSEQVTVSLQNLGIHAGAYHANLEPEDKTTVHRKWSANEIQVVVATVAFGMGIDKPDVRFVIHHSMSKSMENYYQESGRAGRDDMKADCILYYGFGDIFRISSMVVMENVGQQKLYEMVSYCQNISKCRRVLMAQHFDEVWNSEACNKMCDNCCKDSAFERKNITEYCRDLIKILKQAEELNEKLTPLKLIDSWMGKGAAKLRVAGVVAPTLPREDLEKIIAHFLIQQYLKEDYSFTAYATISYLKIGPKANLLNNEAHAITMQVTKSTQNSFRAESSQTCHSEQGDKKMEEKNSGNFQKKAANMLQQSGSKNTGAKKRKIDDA
# Values joined by “and” are separate entries in the source; they are usually repeats but may differ in a detail not shown here. Identical values can stand only once. In all, about 240,000 compounds went through this assay and about 1,300 (0.54%) were called active. Inconclusive results, whose numbers are uncertain, are shown with a selection of clear calls. The call rests on the fitted dose curve; in most records, active means well fitted inhibition curve with a large enough effect; inconclusive means small, poorly fitted or top-dose-only effect; inactive means flat fitted curve, though single readings scatter. Potencies beside an inconclusive call are fits to weak or partial responses and may not hold up. Some structures have more than one record in an assay (separate samples or runs), and their calls can disagree. Where a SMILES comes first, the peptide text is derived from it.
# Molecular target: ATP-dependent DNA helicase Q1 (Homo sapiens) (UniProt P46063)
# Test: qHTS Assay for Inhibitors of RecQ-Like Dna Helicase 1 (RECQ1); further: nearly all actives have a fitted effect of over 30% in size
# Settings: RECQ1 DNA unwinding, red fluorescence kinetic read; series mostly up to 57.3 µM
# In short: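 RECQ1T1 50 nM; forked duplex (20 bp + 30-nt ss tails) 200 nM, ATP 2 mM final; pH 8.0, 2 mM MgCl2, 2.5 ug/ml poly(dI-dC); 15 min compound preincubation; discontinuous kinetic read over 2 h at RT.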
# Potency means the concentration at half of the fitted maximal effect.
row,Structure (SMILES),Potency
1,CCOC(=O)CSc1nc2ccc(N3CCOCC3)cc2c(=O)n1Cc1ccc2c(c1)OCO2,"inconclusive: 35.5 µM [inhibitor, single point]"
2,CCN(CC)CCOC(=O)c1ccc(N/C=C(/C#N)c2nc(-c3cccc(OC)c3)cs2)cc1,inactive
3,CCOc1ccc(Cn2nnc(C(=O)Nc3ccc(OC)cc3OC)c2N)cc1,"inconclusive: 1.26 µM [inhibitor, full curve]"
4,O=C(c1csc2c1CCCC2)N1CCN(c2ccccc2)CC1,"inconclusive: 0.158 µM [inhibitor, full curve, poor fit]"
5,Oc1ccc(/C=N/NC(=S)Nc2cccnc2)c(O)c1O,active: 3.55 µM
6,CCCCc1ccc(C2C(C#N)=C(N)SC(N)=C2C#N)s1,active: 22.4 µM
7,CCCCCC(=O)Cc1cc(O)cc2c1C(=O)Oc1cc(O)c(C(=O)O)c(CCCCC)c1O2,active: 15.8 µM
8,O=c1c(O)c(-c2cc(O)c(O)c(O)c2)oc2cc(O)ccc12,active: 4.47 µM
9,CCOC(=O)Cc1nnc(NC(=O)CSc2nnc3c(n2)[nH]c2ccccc23)s1,"inconclusive: 17.8 µM [inhibitor, partial curve]"
10,CC(=O)n1cc([C@@H]2C=C(C(=O)N3CCN(Cc4ccc5c(c4)OCO5)CC3)O[C@H](OCCCCO)C2)c2ccccc21,"inconclusive: 39.8 µM [inhibitor, single point]"
11,COc1ccc(/C=N/NC(=O)c2cc(O)c(O)c(O)c2)cc1Cn1cc([N+](=O)[O-])cn1,active: 1.78 µM
12,Cc1onc(-c2ccccc2Cl)c1C(=O)NCc1nc(-c2ccc(C(F)(F)F)cc2)no1,"inconclusive: 39.8 µM [inhibitor, single point]"
13,Cc1ccc(S(=O)(=O)N2CCC(C(=O)NCCN3CCCCCC3)CC2)cc1,"inconclusive: 11.2 µM [inhibitor, partial curve, poor fit]"
14,CCCCSc1nnc2nc(C)cc(C)n12,"inconclusive: 3.98 µM [inhibitor, single point]"
15,O=S(=O)(c1ccc(NC(=S)NN=C2CCCCC2)cc1)N1CCOCC1,inactive
16,CCOC(=O)CSc1nnc(CSc2nc(C)cc(C)n2)n1Cc1ccco1,"inconclusive: 8.91 µM [inhibitor, single point]"
17,O=C(Oc1ccc2c(c1)OCO2)c1cc2c(s1)CCC2,"inconclusive: 3.98 µM [inhibitor, single point]"
18,N#Cc1c(NC(=O)CSc2ncnc3sccc23)oc(-c2ccco2)c1-c1ccco1,active: 25.1 µM
19,COc1ccccc1COC(=O)Nc1c(C)nn(C)c1Cl,"inconclusive: 5.01 µM [inhibitor, partial curve]"
20,COc1ccccc1Oc1nc2c(c(=O)n(Cc3ccccc3F)c(=O)n2C)n1C,"inconclusive: 39.8 µM [inhibitor, single point]"
21,Cc1ccc(S(=O)(=O)N2CCC(C(=O)NCCCN3CCCCCC3)CC2)cc1,"inconclusive: 39.8 µM [inhibitor, single point]"
22,C=C1CCN(C(Cc2ccccc2)C(=O)OC)S(=O)(=O)c2ccc(F)cc21 (stereo not given),"inconclusive: 2.82 µM [inhibitor, full curve]"
23,Cc1cc(C(=O)COC(=O)CNC(=O)c2ccc(F)cc2)c(C)n1Cc1ccco1,"inconclusive: 31.6 µM [inhibitor, single point]"
24,COc1ccc(NC(=O)c2ccc(S(=O)(=O)N3CCOCC3)cc2)c(OC)c1,inactive

row,Structure (SMILES),Potency
1,COCCNC(=O)/C(C#N)=C/c1ccc(N2CCOCC2)o1,inactive
2,CC(=O)Oc1c(C)cccc1C(=O)O,inactive
3,CN(C)c1nc(-c2ccc3c(c2)OCO3)nc2ccccc12,inactive
5,N[C@H](C(=O)O)C1[C@H](C(=O)O)[C@H]1C(=O)O (stereo not given in full),inactive
6,Cn1ccnc1SCC(=O)Nc1ccc2c(c1)COC2=O,"inconclusive: 12.6 µM [inhibitor, partial curve]"
7,Cc1ccc(C2=CC(C)(c3ccc(C)cc3)Nc3nc(C(F)(F)F)nn32)cc1 (stereo not given),"inconclusive: 25.1 µM [inhibitor, partial curve, poor fit]"
8,O=C(CSc1ccc(Cl)cc1)Nc1ccc(-c2nc3ccccc3[nH]2)cc1,active: 28.2 µM
9,O=c1cc(-c2cc(O)c(O)c(O)c2)oc2cc(O)cc(O)c12,"inconclusive: 0.708 µM [inhibitor, full curve]"
10,Cc1ccc(NC(=O)CN2C(=O)S/C(=C/c3ccc(-c4cc(C(=O)O)ccc4C)o3)C2=O)cc1C,active: 14.1 µM
11,CCCCCCCCC#CCC#CCC#CCCCC(=O)O,active: 20 µM
12,C=CCNC(=O)c1ccc([N+](=O)[O-])c(Cl)c1,inactive
13,OC1(C#CCN2CCOCC2)CCCCC1,inactive
14,CC1CCCCC1NS(=O)(=O)c1ccc(-n2cnnn2)cc1 (stereo not given),"inconclusive: 5.01 µM [inhibitor, partial curve]"
15,O=c1cc(-c2c(O)c3ccccc3n(Cc3ccccc3)c2=O)[nH][nH]1,"inconclusive: 25.1 µM [inhibitor, partial curve, poor fit]"
16,O=C(Nc1cccc(C(F)(F)F)c1)N1CCC(c2nc(-c3ccc(F)cc3)no2)CC1,"inconclusive: 2.82 µM [inhibitor, partial curve]"
17,O=C1/C(=C/c2ccco2)Oc2c1ccc(O)c2CN1CCCCC1,"inconclusive: 35.5 µM [inhibitor, single point]"
18,CCN(CC)c1ccc(/C=N/OCC(=O)Nc2cccc(C)c2)cc1,"inconclusive: 39.8 µM [inhibitor, single point]"
19,Cn1nc(C(F)(F)F)c(/C=N/OC(=O)c2ccccc2Cl)c1SCc1ccccc1Cl,"inconclusive: 35.5 µM [inhibitor, partial curve]"
20,CC(C)C(C)(C#N)NC(=O)CSc1nc2scc(-c3ccco3)c2c(=O)n1-c1ccccc1 (stereo not given),active: 20 µM
21,Cc1ccc2cc(CN(Cc3nnnn3Cc3ccco3)CC3CCCO3)c(=O)[nH]c2c1C (stereo not given),"inconclusive: 39.8 µM [inhibitor, single point]"
22,CC(/C=C1\SC(=S)N(NC(=O)c2cccc(O)c2)C1=O)=C\c1ccccc1,"inconclusive: 44.7 µM [inhibitor, partial curve, poor fit]"
23,COc1cccc(-n2c(SC)nnc2-c2c[nH]c3ccccc23)c1,"inconclusive: 39.8 µM [inhibitor, single point]"
24,COc1ccc2cc(C(N)=O)/c(=N/NC(=O)c3ccco3)oc2c1,"inconclusive: 39.8 µM [inhibitor, single point]"

row,Structure (SMILES),Potency
1,CCOC(=O)Cc1cc(=O)n2[nH]c(C)c(-c3ccccc3)c2n1,active: 35.5 µM
2,O=C(NCc1ccc2c(c1)OCO2)C1CCCN(S(=O)(=O)c2cccc3nonc23)C1 (stereo not given),"inconclusive: 0.158 µM [inhibitor, full curve, poor fit]"
3,CC(Nc1cccc2ccccc12)C(=O)N/N=C/c1ccc([N+](=O)[O-])cc1 (stereo not given),inactive
4,CCC(=O)O[C@H](CC(=O)O)C[N+](C)(C)C,"inconclusive: 6.31 µM [inhibitor, single point]"
5,O=c1c2ccccc2nc(COc2ccccc2)n1/N=C/c1cn[nH]c1-c1ccccc1,"inconclusive: 8.91 µM [inhibitor, full curve]"
6,Cc1cccc(N2CCN(C(=O)CCS(=O)(=O)c3ccc(Br)cc3)CC2C)c1 (stereo not given),active: 35.5 µM
7,O=C(O)C(C(=O)/C=C/c1ccco1)=C1SCCS1,"inconclusive: 39.8 µM [inhibitor, single point]"
8,Nc1ccc(O)c(C(=O)O)c1,active: 3.98 µM and active: 7.08 µM
9,O=C(NC1(C(F)(F)F)NC(=O)N(Cc2cccnc2)C1=O)c1cccs1 (stereo not given),"inconclusive: 0.631 µM [inhibitor, single point]"
10,CC(=O)N[C@@H](CC(=O)O)C(=O)N[C@@H](CCC(=O)O)C(=O)O (Ac-Asp-Glu-OH),"inconclusive: 7.94 µM [inhibitor, full curve, poor fit]"
11,COc1cc(OC)c(OC)cc1/C=N/NC(=O)c1ccc(=O)n(C)c1,inactive
12,c1coc(CNCC2OCCc3ccccc32)c1 (stereo not given),"inconclusive: 5.62 µM [inhibitor, single point]"
13,Cc1cc([N+](=O)[O-])nn1CC(=O)Nc1cccc2nonc12,inactive
14,CC(Sc1nc(N)c2c3c(sc2n1)CSC(C)(C)C3)C(=O)Nc1ccccc1 (stereo not given),"inconclusive: 31.6 µM [inhibitor, single point]"
15,CCn1c(SCC(=O)Nc2cccc(C)c2)nc2nc3c(cc2c1=O)COC(C)(C)C3,inactive
16,Cc1ccccc1CN(c1ccc(C(=O)NCC2CCCO2)cc1)S(C)(=O)=O (stereo not given),"inconclusive: 7.08 µM [inhibitor, partial curve]"
17,N#C/C(=C/c1ccc(O)c(O)c1)C(=O)OC/C=C/c1ccccc1,"inconclusive: 31.6 µM [inhibitor, partial curve, poor fit]"
18,Cc1cc2c(ncn2C)c(NS(=O)(=O)c2ccc(Cl)cc2)c1C,"inconclusive: 0.891 µM [inhibitor, full curve]"
19,N#CC(C#N)=C1C=C2C=C(N3CCCCC3)CCC2CC1 (stereo not given),active: 28.2 µM
20,N#CC1=C(N)OC2=C(C(=O)CC(c3ccco3)C2)C1c1ccc(OCc2c(F)cccc2Cl)cc1 (stereo not given),"inconclusive: 20 µM [inhibitor, single point]"
21,Cc1ccccc1Nc1oc(-c2ccccc2)nc1-c1ccccc1,inactive
22,O=C(/C=C/c1ccco1)N/C(=C\c1ccccc1)C(=O)NCCc1nc2ccccc2[nH]1,"inconclusive: 39.8 µM [inhibitor, single point]"
